Assay results from the supplement of paper PMC10849652.
The other results are listed elsewhere or left out.

The chains behind the UniProt entries cited, without tags or fusion partners. Where a name states a change or a piece, a line headed by the entry shows the natural chain unless it says otherwise.
UniProt O43169: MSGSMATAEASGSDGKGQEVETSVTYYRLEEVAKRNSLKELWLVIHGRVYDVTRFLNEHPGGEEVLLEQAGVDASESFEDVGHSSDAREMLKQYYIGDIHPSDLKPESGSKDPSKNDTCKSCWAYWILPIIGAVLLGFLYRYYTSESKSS
UniProt P48729: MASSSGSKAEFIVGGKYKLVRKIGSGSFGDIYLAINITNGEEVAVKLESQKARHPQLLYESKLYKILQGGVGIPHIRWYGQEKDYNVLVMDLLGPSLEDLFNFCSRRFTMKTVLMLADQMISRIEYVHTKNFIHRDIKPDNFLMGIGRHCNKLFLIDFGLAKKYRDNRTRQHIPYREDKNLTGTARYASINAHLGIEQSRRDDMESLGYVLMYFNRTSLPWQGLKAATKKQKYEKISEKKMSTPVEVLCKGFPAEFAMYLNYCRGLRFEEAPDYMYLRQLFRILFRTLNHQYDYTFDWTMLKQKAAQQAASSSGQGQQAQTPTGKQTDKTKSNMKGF
UniProt Q9NRF8: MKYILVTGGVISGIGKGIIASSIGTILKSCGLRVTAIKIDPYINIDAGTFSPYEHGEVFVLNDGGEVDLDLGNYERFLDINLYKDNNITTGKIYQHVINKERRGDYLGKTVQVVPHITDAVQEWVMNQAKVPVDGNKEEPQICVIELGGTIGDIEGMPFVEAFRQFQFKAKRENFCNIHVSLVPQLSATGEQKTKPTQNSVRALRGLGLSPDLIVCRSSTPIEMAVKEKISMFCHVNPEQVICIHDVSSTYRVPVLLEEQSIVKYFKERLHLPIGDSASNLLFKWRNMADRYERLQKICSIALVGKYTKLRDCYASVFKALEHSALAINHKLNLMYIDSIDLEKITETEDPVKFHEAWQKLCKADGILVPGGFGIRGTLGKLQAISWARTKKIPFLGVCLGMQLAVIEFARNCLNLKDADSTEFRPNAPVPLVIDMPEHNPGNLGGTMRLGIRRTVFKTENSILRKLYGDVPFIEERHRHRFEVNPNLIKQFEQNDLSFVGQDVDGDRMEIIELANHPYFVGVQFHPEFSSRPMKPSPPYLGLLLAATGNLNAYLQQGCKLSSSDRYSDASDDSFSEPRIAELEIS
UniProt Q5TZA2: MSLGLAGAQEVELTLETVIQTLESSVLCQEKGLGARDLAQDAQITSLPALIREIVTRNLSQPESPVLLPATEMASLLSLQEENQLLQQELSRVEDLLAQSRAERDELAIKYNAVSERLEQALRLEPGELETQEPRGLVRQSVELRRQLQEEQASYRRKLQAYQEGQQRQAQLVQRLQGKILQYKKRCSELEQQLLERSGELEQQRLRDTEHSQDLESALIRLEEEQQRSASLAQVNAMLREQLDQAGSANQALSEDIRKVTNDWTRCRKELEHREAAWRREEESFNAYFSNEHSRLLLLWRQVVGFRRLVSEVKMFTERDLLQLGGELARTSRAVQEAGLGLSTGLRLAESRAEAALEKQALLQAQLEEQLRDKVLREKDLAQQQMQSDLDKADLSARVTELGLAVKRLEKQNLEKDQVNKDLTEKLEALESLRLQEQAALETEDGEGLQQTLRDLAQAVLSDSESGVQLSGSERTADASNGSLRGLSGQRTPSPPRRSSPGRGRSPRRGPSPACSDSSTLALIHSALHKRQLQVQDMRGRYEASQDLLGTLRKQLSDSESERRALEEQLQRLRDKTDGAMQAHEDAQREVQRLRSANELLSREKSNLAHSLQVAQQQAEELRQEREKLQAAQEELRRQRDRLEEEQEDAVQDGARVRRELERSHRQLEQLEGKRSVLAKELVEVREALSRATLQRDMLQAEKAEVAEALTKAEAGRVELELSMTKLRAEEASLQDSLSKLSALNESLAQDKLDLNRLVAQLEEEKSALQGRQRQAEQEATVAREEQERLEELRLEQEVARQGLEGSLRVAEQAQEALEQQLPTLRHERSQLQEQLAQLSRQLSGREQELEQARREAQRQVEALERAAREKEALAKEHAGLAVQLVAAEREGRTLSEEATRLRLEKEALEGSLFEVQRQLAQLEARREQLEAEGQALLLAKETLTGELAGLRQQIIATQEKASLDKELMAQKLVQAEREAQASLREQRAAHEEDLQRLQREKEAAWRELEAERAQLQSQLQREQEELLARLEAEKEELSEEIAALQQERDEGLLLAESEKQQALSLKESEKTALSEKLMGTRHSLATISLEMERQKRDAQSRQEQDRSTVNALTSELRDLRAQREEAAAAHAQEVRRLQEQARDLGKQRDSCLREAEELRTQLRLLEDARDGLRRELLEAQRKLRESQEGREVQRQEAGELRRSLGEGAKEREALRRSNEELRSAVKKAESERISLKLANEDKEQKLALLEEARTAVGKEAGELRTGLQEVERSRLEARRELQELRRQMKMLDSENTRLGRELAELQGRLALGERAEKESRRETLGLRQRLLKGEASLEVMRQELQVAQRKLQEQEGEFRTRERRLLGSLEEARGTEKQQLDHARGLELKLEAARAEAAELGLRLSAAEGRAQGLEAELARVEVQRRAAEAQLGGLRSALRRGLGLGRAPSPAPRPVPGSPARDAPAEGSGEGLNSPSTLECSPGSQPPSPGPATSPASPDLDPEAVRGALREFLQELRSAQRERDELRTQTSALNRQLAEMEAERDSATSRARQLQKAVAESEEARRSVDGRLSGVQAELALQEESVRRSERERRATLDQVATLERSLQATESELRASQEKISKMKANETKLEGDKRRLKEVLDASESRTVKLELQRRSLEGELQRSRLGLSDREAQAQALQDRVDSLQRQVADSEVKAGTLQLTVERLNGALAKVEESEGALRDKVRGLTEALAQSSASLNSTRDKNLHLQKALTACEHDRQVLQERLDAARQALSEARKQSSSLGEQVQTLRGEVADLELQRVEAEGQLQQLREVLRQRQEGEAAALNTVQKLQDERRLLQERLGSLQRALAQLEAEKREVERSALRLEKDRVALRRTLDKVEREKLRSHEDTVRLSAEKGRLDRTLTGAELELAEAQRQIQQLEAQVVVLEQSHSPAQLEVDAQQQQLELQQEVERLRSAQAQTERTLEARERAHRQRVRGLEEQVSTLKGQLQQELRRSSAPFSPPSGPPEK
UniProt O95196: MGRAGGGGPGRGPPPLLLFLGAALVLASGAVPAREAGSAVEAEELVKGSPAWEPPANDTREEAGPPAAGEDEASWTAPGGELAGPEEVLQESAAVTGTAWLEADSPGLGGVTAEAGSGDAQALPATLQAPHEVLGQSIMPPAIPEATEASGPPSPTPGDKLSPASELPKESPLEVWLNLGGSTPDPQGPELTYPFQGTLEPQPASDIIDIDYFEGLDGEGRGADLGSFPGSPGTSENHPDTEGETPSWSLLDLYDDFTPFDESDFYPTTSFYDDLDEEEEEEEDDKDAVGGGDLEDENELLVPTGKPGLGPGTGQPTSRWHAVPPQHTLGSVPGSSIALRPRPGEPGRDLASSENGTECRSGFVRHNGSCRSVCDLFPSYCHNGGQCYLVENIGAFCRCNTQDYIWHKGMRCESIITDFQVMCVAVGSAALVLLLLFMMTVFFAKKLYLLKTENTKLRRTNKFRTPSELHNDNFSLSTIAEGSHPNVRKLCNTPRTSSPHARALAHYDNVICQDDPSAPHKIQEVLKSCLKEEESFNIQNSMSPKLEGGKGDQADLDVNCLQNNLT
UniProt Q2TBE0: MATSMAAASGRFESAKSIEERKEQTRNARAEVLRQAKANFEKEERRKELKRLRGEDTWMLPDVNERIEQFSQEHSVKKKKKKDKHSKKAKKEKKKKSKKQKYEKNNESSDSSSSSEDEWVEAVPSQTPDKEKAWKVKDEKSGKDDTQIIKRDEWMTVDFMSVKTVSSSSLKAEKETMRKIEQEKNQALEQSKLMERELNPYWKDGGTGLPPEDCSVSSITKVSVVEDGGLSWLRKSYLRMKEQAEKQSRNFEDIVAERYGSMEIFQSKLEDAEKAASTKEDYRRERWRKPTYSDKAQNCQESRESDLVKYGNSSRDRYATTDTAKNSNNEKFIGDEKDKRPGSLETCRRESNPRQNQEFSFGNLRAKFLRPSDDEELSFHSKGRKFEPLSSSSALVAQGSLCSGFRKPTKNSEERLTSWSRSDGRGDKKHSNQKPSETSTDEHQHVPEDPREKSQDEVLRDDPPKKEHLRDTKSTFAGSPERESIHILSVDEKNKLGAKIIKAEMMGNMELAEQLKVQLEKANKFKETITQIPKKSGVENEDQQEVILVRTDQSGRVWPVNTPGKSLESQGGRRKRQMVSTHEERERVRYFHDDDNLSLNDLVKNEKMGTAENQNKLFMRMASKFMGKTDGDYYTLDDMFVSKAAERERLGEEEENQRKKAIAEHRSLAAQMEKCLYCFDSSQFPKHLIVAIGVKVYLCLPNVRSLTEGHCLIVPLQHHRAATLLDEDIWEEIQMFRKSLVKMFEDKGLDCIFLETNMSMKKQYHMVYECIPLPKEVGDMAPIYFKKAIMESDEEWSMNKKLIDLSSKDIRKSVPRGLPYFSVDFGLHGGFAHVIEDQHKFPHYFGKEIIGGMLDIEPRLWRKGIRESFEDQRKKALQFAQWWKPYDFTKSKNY
UniProt O95715: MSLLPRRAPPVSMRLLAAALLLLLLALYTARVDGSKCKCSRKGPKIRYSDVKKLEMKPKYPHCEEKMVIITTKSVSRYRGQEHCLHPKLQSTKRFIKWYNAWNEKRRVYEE
UniProt Q2NKJ3: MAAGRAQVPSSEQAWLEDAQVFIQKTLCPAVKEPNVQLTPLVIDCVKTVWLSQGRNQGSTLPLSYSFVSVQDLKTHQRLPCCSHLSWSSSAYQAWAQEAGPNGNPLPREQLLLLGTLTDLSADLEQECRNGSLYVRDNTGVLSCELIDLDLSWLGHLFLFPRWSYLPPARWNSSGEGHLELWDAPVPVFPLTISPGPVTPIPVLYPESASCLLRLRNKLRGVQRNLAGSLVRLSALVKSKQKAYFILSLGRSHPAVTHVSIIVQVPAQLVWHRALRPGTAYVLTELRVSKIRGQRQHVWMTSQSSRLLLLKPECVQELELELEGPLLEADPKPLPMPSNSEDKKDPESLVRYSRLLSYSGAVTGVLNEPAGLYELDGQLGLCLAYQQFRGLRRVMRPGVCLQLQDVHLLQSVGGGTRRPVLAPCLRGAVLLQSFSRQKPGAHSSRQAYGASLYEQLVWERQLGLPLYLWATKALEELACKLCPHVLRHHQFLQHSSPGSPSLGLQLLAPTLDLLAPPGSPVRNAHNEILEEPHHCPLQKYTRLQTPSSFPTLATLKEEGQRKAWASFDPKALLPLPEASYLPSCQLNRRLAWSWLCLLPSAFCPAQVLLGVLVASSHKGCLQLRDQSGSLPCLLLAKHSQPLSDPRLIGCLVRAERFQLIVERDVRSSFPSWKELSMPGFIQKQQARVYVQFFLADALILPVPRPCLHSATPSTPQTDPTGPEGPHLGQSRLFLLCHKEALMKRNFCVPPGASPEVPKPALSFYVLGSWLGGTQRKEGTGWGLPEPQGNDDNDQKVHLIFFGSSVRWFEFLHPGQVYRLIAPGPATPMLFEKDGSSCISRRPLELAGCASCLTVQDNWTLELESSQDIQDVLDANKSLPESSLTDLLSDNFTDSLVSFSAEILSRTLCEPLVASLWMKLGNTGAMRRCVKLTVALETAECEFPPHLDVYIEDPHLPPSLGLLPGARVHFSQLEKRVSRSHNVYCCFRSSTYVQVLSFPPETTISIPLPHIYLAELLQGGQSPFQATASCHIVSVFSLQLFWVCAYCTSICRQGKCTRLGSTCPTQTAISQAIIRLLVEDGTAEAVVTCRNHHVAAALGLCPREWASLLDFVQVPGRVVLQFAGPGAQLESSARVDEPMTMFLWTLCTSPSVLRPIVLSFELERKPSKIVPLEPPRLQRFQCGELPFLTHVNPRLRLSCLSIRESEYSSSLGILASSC
UniProt Q7L1T6: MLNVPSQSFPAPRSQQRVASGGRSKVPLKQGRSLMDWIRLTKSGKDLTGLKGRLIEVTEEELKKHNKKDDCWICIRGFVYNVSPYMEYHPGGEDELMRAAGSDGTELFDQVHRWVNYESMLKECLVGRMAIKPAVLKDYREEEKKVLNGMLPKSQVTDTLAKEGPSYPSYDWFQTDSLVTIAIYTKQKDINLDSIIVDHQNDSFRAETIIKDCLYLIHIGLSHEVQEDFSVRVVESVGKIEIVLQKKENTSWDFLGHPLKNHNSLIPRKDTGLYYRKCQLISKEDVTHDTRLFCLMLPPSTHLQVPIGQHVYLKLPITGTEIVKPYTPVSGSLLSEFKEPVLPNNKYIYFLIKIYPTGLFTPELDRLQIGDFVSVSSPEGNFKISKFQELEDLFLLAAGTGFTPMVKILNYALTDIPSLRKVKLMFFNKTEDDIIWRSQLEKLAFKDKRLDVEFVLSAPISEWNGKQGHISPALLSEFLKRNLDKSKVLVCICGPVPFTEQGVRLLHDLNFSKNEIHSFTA
UniProt Q16619: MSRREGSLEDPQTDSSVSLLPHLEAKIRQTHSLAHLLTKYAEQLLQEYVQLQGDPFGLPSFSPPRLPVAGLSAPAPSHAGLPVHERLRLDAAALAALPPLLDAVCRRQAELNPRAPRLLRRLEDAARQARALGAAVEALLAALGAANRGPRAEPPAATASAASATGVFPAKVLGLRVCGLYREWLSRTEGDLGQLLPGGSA

Columns and labels:
Test in all cases: log2 fold change, soluble protein after heating vs DMSO (PISA); higher = thermal stabilisation; K562 lysate, 10 uM; active = over 0.2 and 3.5 SD of the protein, either way, in both replicates (recomputed)
vemurafenib = compound: CCCS(=O)(=O)Nc1ccc(F)c(C(=O)c2c[nH]c3ncc(-c4ccc(Cl)cc4)cc23)c1F [vemurafenib]
Procedure, shortened: (§1)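 A 30 min treatment with 10 μM compound was applied to crude K562 extract at 1 mg/mL protein in PBS pH 7.4 with 1 mM MgCl2. Heating for 3 min spanned 48°C-58°C, after which aliquots were pooled, adjusted to 0.5% NP-40 at 4°C and spun at 21,000xg for 90 min. TMTpro 16plex LC-MS/MS of the supernatant, with channel sums equalised, gave values recorded as log-two fold change in thermal stability against solvent controls, from duplicates.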

[1] = compound: CCCS(=O)(=O)Nc1ccc(F)c(C(=O)c2c[nH]c3ncc(Cl)cc23)c1F
Procedure, shortened: as §1

barasertib = compound: CCN(CCCOc1ccc2c(Nc3cc(CC(=O)Nc4cccc(F)c4)[nH]n3)ncnc2c1)CCOP(=O)(O)O [barasertib]
Procedure, shortened: as §1

[2] = compound: CC[C@@H]1C(=O)N(C)c2cnc(Nc3ccc(C(=O)NC4CCN(C)CC4)cc3OC)nc2N1C1CCCC1
Procedure, shortened: as §1

volasertib = compound: CC[C@@H]1C(=O)N(C)c2cnc(Nc3ccc(C(=O)N[C@H]4CC[C@H](N5CCN(CC6CC6)CC5)CC4)cc3OC)nc2N1C(C)C [volasertib]
Procedure, shortened: as §1

[3] = compound: CCn1c(C(=O)N(C2CC2)C2CC2)cc2c3c(ncn3C)c(Nc3cc(C)n(C)n3)nc21
Procedure, shortened: as §1

[4] = compound: CCn1cc(-c2ccnc3[nH]c(-c4cccc(CN(C)C)c4)cc23)c(-c2ccc(NC(=O)N(C)C)cc2)n1
Procedure, shortened: as §1

[5] = compound: CN1CCC(CNc2ccc3ncc(-c4cccc(OC(F)(F)F)c4)n3n2)CC1
Procedure, shortened: as §1

saracatinib = compound: CN1CCN(CCOc2cc(OC3CCOCC3)c3c(Nc4c(Cl)ccc5c4OCO5)ncnc3c2)CC1 [saracatinib]
Procedure, shortened: as §1

sotrastaurin = compound: CN1CCN(c2nc(C3=C(c4c[nH]c5ccccc45)C(=O)NC3=O)c3ccccc3n2)CC1 [sotrastaurin]
Procedure, shortened: as §1

Measured: log2 fold change

CS (UniProt O75390)
inactive: vemurafenib -0.002 | [1] -0.001 | barasertib -0.011 | [2] -0.008 | volasertib 0.008 | [3] -0.005 | [4] 0.023 | [5] -0.033 | saracatinib -0.036 | sotrastaurin -0.013

CYB5B (UniProt O43169)
inactive: vemurafenib 0.009 | [1] 0.017 | barasertib 0.202 | [2] 0.092 | volasertib 0.051 | [3] -0.008 | [4] -0.091 | [5] -0.058 | saracatinib 0.096 | sotrastaurin -0.021

CSNK1A1 (UniProt P48729)
inactive: vemurafenib -0.044 | [1] 0.017 | barasertib -0.003 | [2] 0.078 | volasertib -0.066 | [3] 0.097 | [4] 0.065 | [5] 0.171 | saracatinib 0.02 | sotrastaurin 0.048

CTSC (UniProt P53634)
inactive: vemurafenib -0.001 | [1] 0.012 | barasertib -0.006 | [2] 0.062 | volasertib -0.004 | [3] 0.011 | [4] -0.146 | [5] 0.09 | saracatinib -0.032 | sotrastaurin 0.036

CTPS2 (UniProt Q9NRF8)
inactive: vemurafenib 0.002 | [1] 0.01 | barasertib 0.015 | [2] -0.028 | volasertib -0.009 | [3] 0.011 | [4] -0.041 | [5] 0.058 | saracatinib 0.012 | sotrastaurin -0.044

CROCC (UniProt Q5TZA2)
inactive: vemurafenib -0.038 | [1] -0.077 | barasertib 0.079 | [2] -0.135 | volasertib -0.085 | [3] 0.152 | [4] -0.157 | [5] 0.113 | saracatinib -0.021 | sotrastaurin -0.058

CRYZL1 (UniProt O95825)
inactive: vemurafenib -0.029 | [1] 0.014 | barasertib -0.01 | [2] 0.016 | volasertib 0.028 | [3] -0.027 | [4] -0.041 | [5] 0.086 | saracatinib -0.013 | sotrastaurin 0.031

CSNK1E (UniProt P49674)
inactive: vemurafenib -0.013 | [1] -0.038 | barasertib 0.029 | [2] 0.135 | volasertib -0.01 | [3] 0.11 | [4] -0.013 | [5] 0.237 | saracatinib 0.069 | sotrastaurin 0.061

Reprinted at random: two entries already listed.
CTSC (UniProt P53634)
inactive: vemurafenib -0.001 | [1] 0.012 | barasertib -0.006 | [2] 0.062 | volasertib -0.004 | [3] 0.011 | [4] -0.146 | [5] 0.09 | saracatinib -0.032 | sotrastaurin 0.036

CSNK1A1 (UniProt P48729)
inactive: vemurafenib -0.044 | [1] 0.017 | barasertib -0.003 | [2] 0.078 | volasertib -0.066 | [3] 0.097 | [4] 0.065 | [5] 0.171 | saracatinib 0.02 | sotrastaurin 0.048

Following part

CST3 (UniProt P01034)
inactive: vemurafenib -0.076 | [1] -0.002 | barasertib 0.053 | [2] -0.086 | volasertib -0.004 | [3] 0.044 | [4] -0.074 | [5] 0.073 | saracatinib 0.031 | sotrastaurin 0.028

CSPG5 isoform 2 (UniProt O95196)
inactive: vemurafenib -0.28 | barasertib -0.038 | [3] 0.113 | sotrastaurin -0.006

CT47B1 (UniProt P0C2W7)
inactive: vemurafenib 0.111 | [1] -0.016 | barasertib -0.099 | [2] -0.014 | volasertib -0.04 | [3] 0.07 | saracatinib 0 | sotrastaurin 0.088

CTRB2 (UniProt Q6GPI1)
inactive: vemurafenib 0.09 | [1] -0.009 | [2] 0.04 | volasertib -0.011 | [4] -0.468 | [5] 0.395

CRTC2 (UniProt H0YDQ8)
inactive: vemurafenib 0.065 | [3] 0.001

CWF19L2 (UniProt Q2TBE0)
inactive: vemurafenib -0.042 | [1] -0.177 | barasertib 0.091 | [2] 0.082 | volasertib -0.079 | [3] 0.013 | [4] -0.055 | [5] -0.017 | saracatinib -0.01 | sotrastaurin -0.014

CRY2 (UniProt Q49AN0)
inactive: vemurafenib 0.13 | [4] -0.04 | [5] 0.075

CYBRD1 (UniProt Q53TN4)
inactive: vemurafenib 0.025 | [1] -0.051 | barasertib -0.051 | volasertib -0.016 | [4] -0.05 | [5] 0.078 | saracatinib -0.066 | sotrastaurin 0.091

CSNK1G2 (UniProt P78368)
inactive: vemurafenib -0.004 | barasertib -0.034 | volasertib 0.015 | [3] 0.104 | [4] -0.366 | [5] 0.273 | saracatinib -0.02 | sotrastaurin 0.146

CUX1 isoform 2 (UniProt Q13948)
inactive: vemurafenib 0.013 | [1] 0.084 | [2] -0.087 | volasertib -0.001 | [3] 0.019 | [4] 0.06 | [5] -0.34 | saracatinib -0.054 | sotrastaurin 0.081

CSNK1G3 (UniProt Q9Y6M4)
inactive: vemurafenib -0.004 | [1] -0.053 | barasertib -0.028 | volasertib 0.002 | [3] 0.039 | [4] -0.095 | [5] 0.065 | saracatinib 0.043 | sotrastaurin 0.035

CWC15 (UniProt Q9P013)
inactive: vemurafenib 0.011 | [1] -0.02 | barasertib 0.004 | [2] 0.068 | volasertib 0.073 | [3] -0.03 | [4] -0.033 | [5] -0.009 | saracatinib -0.026 | sotrastaurin -0.026

CXCL14 (UniProt O95715)
inactive: vemurafenib 0.252 | barasertib 0.079 | [2] 0.189

CRYM-AS1 (UniProt A6NIL9)
inactive: vemurafenib -0.016 | [1] -0.127 | barasertib 0 | [2] 0.366 | volasertib 0.345 | [3] -0.349 | [4] -0.188 | [5] 0.473 | sotrastaurin -0.019

CTTNBP2NL (UniProt Q9P2B4)
inactive: vemurafenib -0.011 | [1] -0.024 | barasertib -0.006 | [2] -0.012 | volasertib 0.067 | [3] -0.005 | [4] -0.098 | [5] -0.001 | sotrastaurin 0.018

CTNNAL1 (UniProt Q9UBT7)
inactive: vemurafenib 0.047 | [1] 0.052 | [2] -0.066 | volasertib -0.079 | [4] -0.192 | [5] -0.007 | saracatinib -0.382 | sotrastaurin -0.08

CRCP (UniProt O75575)
inactive: vemurafenib 0.024 | [1] 0.03 | barasertib 0.114 | [2] 0.042 | volasertib 0.023 | [3] 0.041 | [4] -0.013 | [5] -0.025 | sotrastaurin 0.017

CST4 (UniProt P01036)
inactive: [1] -0.125 | barasertib -0.099 | [2] 0.006 | volasertib -0.14 | [3] -0.005 | saracatinib -0.248

CRTC3 (UniProt Q6UUV7)
inactive: vemurafenib 0.041 | barasertib 0.092 | [2] 0.038 | [3] 0.074 | saracatinib 0.043 | sotrastaurin -0.049

CTC1 (UniProt Q2NKJ3)
inactive: vemurafenib 0.008 | barasertib 0.165 | [2] 0.09 | [3] -0.06 | [4] -0.027 | [5] -0.004 | saracatinib 0.121 | sotrastaurin 0.011

CYB5R4 (UniProt Q7L1T6)
inactive: vemurafenib -0.071 | [1] -0.027 | barasertib 0.332 | [2] 0.023 | volasertib -0.034 | [3] 0.001 | [4] -0.049 | [5] 0.014 | saracatinib 0.024 | sotrastaurin 0.036

CSNK1D (UniProt P48730)
inactive: vemurafenib -0.04 | [1] -0.044 | barasertib -0.092 | volasertib -0.191 | [3] 0.025 | [5] 0.255 | saracatinib -0.039 | sotrastaurin 0.058

CTF1 (UniProt Q16619)
inactive: vemurafenib 0.082 | [1] -0.21 | [2] 0.374 | volasertib -0.071 | [3] 0.314 | [4] 0.015 | [5] -0.133 | saracatinib 0.036 | sotrastaurin 0.112

CRYM (UniProt Q14894)
inactive: vemurafenib -0.28 | [1] 0.021 | barasertib -0.135 | [2] 0.061 | volasertib -0.015 | [3] -0.139 | [4] -0.054 | [5] 0.076 | sotrastaurin 0.081
